The other results are listed elsewhere or left out.
These targets were tested with CC1Cc2ccccc2N1C(=O)C1CCCN(C1)C(=O)CCl (mixture of isomers) [TRIM25 ligand 11 (diastereomer mixture)] (assay: probe-labelled cysteine peptide fold change vs DMSO (competition) (log2 fold change); higher = less target engagement (more negative = stronger competition)). Settings: 50 µM; THP-1; incubation time: 4 h.
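Further: competitive chemoproteomic profiling in live THP-1 cells with an iodoacetamide desthiobiotin (IA-DTB) probe, comparing probe-labelled peptide intensities in compound-treated cells against DMSO-treated controls.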

Protein sequences, listed by entry. Tags and fused reporters are not part of them. Lines headed by an entry give the natural chain unless they say otherwise; changes in a name come on top.
UniProt Q6ZS81: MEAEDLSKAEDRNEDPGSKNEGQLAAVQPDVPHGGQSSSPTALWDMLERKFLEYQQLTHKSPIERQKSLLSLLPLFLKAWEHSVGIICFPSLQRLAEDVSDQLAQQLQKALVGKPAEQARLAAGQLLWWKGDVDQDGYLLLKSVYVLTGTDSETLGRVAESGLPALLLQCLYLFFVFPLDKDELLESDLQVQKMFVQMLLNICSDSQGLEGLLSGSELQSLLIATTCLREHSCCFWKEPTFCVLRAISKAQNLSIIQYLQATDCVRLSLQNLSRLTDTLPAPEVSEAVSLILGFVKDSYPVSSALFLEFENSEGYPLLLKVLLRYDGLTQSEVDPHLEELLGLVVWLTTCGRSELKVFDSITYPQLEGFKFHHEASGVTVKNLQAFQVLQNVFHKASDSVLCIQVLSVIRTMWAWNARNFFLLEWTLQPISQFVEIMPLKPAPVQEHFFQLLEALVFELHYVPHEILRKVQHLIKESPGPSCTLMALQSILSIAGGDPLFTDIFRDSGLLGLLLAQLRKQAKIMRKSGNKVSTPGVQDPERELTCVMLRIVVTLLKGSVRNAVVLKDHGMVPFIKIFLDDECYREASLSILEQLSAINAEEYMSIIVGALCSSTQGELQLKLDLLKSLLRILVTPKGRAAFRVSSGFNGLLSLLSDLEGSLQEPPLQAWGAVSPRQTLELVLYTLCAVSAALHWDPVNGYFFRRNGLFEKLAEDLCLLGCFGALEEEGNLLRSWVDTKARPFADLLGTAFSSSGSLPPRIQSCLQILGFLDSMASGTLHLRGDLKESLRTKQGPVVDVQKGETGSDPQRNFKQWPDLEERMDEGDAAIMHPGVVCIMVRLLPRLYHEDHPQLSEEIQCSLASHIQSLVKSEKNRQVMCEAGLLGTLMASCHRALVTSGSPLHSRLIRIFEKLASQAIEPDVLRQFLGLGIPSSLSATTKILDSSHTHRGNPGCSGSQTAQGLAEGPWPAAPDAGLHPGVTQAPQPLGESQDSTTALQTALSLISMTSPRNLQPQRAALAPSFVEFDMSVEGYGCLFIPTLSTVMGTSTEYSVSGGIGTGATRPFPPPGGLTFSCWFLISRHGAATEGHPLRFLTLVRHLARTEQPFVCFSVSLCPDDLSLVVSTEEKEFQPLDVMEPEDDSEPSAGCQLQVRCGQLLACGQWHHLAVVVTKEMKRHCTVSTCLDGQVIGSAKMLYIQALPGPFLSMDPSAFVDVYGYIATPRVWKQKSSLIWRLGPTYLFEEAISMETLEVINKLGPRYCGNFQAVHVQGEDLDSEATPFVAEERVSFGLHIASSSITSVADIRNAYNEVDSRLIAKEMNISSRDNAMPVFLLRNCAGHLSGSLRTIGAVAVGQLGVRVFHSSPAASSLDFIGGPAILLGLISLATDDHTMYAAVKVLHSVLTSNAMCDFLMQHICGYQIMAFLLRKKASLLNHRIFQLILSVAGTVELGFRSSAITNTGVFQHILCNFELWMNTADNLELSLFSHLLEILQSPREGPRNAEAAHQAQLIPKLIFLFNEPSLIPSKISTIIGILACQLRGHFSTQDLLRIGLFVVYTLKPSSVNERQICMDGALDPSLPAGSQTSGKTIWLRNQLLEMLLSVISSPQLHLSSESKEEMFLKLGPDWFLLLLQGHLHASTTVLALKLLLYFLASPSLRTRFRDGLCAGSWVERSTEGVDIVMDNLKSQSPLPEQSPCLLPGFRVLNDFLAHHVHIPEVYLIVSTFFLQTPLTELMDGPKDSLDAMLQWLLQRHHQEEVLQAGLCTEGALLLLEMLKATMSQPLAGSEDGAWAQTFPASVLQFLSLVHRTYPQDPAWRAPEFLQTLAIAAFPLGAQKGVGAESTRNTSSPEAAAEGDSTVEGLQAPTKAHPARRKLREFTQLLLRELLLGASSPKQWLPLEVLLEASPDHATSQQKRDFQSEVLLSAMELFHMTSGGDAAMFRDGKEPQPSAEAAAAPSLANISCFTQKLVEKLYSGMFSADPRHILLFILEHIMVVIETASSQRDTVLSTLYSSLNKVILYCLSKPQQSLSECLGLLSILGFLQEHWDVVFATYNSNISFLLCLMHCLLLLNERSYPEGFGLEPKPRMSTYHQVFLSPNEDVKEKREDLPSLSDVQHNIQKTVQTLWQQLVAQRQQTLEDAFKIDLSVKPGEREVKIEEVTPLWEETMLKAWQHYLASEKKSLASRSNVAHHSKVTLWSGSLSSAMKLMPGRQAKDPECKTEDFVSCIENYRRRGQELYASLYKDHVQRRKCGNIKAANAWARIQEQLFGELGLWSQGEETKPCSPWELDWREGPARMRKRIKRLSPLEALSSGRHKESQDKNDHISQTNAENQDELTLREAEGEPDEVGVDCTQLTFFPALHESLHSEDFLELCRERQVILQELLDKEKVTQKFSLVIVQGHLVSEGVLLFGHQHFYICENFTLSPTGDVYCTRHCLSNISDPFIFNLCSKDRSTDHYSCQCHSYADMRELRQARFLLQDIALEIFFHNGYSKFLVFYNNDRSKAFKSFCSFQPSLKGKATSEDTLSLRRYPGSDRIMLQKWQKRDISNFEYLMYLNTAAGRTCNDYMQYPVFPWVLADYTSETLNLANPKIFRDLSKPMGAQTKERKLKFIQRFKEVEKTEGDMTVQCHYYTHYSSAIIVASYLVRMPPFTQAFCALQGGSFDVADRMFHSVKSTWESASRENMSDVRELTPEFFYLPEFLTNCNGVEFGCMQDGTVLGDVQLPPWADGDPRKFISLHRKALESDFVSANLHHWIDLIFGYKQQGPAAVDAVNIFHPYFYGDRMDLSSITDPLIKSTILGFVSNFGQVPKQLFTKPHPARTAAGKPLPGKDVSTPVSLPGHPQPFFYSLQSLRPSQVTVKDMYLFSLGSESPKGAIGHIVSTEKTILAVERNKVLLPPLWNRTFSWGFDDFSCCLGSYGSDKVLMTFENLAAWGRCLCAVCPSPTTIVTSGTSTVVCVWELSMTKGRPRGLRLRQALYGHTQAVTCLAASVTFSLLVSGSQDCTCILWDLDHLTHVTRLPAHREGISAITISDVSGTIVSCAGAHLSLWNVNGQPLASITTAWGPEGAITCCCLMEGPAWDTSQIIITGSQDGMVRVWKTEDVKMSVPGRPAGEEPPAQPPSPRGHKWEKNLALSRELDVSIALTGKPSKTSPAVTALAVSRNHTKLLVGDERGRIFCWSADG
UniProt Q9HCS7: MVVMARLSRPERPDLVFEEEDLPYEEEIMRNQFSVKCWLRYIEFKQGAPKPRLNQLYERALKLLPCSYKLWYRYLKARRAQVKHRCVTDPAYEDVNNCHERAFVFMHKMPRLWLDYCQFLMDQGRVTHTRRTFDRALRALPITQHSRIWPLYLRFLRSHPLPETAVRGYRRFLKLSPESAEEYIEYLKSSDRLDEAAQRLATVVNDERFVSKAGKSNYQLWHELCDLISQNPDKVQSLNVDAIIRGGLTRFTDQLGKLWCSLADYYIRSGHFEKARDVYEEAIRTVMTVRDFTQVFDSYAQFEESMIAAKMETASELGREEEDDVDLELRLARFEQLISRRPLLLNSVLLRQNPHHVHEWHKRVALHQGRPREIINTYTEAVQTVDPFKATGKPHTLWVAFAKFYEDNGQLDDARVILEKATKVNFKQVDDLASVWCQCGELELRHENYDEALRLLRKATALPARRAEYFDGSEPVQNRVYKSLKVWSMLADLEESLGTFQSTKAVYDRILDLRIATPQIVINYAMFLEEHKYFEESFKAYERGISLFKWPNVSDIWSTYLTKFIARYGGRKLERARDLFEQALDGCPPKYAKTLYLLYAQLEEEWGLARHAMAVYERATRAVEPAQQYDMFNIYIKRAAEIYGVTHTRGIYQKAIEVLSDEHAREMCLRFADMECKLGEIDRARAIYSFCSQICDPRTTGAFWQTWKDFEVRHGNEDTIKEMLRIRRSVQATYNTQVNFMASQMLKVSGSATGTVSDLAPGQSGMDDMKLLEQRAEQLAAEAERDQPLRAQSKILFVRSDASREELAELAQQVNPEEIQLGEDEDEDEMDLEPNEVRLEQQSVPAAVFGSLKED
UniProt O75717: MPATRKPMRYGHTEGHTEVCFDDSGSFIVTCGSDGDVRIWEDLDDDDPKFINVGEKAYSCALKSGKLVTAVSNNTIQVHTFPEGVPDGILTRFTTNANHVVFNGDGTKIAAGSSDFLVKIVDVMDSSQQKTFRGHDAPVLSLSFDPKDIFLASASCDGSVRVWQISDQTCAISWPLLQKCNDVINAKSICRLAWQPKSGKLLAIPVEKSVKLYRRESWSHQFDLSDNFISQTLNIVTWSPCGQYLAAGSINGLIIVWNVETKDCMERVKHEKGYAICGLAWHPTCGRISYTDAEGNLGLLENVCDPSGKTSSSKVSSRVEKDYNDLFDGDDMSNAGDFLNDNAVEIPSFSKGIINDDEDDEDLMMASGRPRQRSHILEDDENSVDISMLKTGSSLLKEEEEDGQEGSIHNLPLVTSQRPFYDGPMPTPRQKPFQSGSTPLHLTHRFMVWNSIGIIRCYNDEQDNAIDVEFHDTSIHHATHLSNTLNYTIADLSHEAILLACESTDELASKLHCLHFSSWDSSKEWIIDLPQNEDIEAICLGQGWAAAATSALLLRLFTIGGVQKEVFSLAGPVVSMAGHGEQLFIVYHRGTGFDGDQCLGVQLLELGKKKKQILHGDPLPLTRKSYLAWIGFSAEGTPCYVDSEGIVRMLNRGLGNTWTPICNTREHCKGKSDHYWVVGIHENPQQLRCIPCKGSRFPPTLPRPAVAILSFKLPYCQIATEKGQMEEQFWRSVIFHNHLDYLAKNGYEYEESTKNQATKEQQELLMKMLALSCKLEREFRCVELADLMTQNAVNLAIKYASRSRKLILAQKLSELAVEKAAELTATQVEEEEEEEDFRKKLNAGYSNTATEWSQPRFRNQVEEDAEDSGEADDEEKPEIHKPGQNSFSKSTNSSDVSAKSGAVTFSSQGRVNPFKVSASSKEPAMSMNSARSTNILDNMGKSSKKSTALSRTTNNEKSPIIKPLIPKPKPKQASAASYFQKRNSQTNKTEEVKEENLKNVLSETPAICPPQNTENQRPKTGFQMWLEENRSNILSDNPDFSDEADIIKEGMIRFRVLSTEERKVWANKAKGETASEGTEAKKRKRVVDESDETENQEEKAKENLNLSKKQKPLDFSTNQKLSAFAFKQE
UniProt Q14191, whole entry, looked up: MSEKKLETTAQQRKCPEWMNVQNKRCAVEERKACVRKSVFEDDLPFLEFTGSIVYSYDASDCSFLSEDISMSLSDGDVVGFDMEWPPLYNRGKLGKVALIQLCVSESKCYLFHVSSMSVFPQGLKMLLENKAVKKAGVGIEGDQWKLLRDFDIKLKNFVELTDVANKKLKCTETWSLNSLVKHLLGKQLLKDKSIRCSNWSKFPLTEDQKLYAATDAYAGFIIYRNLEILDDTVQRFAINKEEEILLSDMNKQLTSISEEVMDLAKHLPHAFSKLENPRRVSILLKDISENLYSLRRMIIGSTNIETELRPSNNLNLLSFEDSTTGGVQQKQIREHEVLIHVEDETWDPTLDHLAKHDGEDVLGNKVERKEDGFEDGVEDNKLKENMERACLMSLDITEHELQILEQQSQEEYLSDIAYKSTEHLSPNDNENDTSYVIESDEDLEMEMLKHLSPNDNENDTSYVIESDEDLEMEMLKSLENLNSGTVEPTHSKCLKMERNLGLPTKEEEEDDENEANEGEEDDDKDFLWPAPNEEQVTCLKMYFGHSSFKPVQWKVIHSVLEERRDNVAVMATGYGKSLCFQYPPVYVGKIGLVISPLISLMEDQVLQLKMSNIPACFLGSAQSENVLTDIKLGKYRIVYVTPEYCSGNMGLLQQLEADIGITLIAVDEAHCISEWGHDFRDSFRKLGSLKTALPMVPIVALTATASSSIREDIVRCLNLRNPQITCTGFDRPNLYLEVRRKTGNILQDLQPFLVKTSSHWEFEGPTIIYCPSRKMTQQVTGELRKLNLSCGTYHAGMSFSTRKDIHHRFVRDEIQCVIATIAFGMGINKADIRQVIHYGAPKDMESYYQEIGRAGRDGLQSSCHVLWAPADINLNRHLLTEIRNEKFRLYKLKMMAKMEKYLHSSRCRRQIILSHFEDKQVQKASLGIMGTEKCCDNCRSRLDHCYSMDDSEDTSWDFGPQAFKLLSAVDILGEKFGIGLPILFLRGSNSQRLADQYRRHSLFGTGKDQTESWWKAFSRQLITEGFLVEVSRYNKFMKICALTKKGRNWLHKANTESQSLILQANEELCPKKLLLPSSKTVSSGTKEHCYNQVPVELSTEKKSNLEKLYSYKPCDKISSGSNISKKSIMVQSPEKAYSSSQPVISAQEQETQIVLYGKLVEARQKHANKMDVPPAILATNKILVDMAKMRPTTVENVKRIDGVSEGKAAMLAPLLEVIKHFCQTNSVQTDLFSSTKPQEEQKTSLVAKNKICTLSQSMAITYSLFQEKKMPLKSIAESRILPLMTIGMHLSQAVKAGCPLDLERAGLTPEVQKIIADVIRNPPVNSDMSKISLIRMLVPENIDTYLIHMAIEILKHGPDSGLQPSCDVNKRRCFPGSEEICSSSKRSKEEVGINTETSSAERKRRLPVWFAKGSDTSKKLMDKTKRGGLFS

Row | Target | probe-labelled cysteine peptide fold change
1 | WDFY3_Q8IZQ1_1600_FGQFISSTLPTFAVCEK (UniProt Q8IZQ1) | -0.127
2 | WDR91_A4D1P6_512_ILSLACSPNGASFVCSAAAPSLTSQVDFSAPDIGSK (UniProt A4D1P6) | 0.064
3 | WDFY4_Q6ZS81_2226_TEDFVSCIENYR (UniProt Q6ZS81) | -0.0899
4 | WDFY1_Q8IWB7_189_LEQNTCSVITTLK (UniProt Q8IWB7) | 0.551
5 | WSB1_Q9Y6I7_262_KLEGHHHDVVACDFSPDGALLATASYDTR (UniProt Q9Y6I7) | 0.182
6 | XPNPEP1_Q9NQW7_279_ALCADLSPR (UniProt Q9NQW7) | 0.0407
7 | WDR82_Q6UXN9_195_TCEWTGLK (UniProt Q6UXN9) | 0.313
8 | WAPL_Q7Z5K2_964_TGEQDGLIGTALNCVLQVPK (UniProt Q7Z5K2) | 0.0904
9 | WDR43_Q15061_372_EPHMCLVR (UniProt Q15061) | -0.0894
10 | WARS_P23381_225_DIIACGFDINK (UniProt P23381) | 0.231
11 | WDR75_Q8IWA0_546_HLCFGR (UniProt Q8IWA0) | 0.227
12 | WNK1_Q9H4A3_1135_VVECQLETHNRK (UniProt Q9H4A3) | 0.179
13 | WDR41_Q9HAD4_99_ITAIITFPSLESCEEK (UniProt Q9HAD4) | 0.0289
14 | XAB2_Q9HCS7_86+98_CVTDPAYEDVNNCHER (UniProt Q9HCS7) | -0.16
15 | WDR25_Q64LD2_429_FTCPSLALHPR (UniProt Q64LD2) | 0.0795
16 | WDR4_P57081_95_TKPWQCLSVR (UniProt P57081) | -0.0752
17 | WDFY3_Q8IZQ1_908_CSAALADEDHSLHPPLQR (UniProt Q8IZQ1) | -0.0942
18 | XAF1_Q6GPH4_62_LEHQQVGCTMCQQSMQK (UniProt Q6GPH4) | -0.202
19 | WDR33_Q9C0J8_120_CPVFVVR (UniProt Q9C0J8) | 0.0764
20 | WDHD1_O75717_156_DIFLASASCDGSVR (UniProt O75717) | 0.176

Retrieved one by one from the list above (2):
Row | Target | probe-labelled cysteine peptide fold change
9 | WDR43_Q15061_372_EPHMCLVR (UniProt Q15061) | -0.0894
1 | WDFY3_Q8IZQ1_1600_FGQFISSTLPTFAVCEK (UniProt Q8IZQ1) | -0.127

More results

Row | Target | probe-labelled cysteine peptide fold change
21 | XIAP_P98170_213_NWEPCDR (UniProt P98170) | -0.171
22 | WIPI2_Q9Y4P8-2_401_AYTDDLGAVGGACLEDEASALRLDEDSEHPPMILR (UniProt Q9Y4P8) | -0.237
23 | WDR37_Q9Y2I8_8_PTESASCSTAR (UniProt Q9Y2I8) | 0.277
24 | XAB2_Q9HCS7_66_LLPCSYK (UniProt Q9HCS7) | -0.0673
25 | XAB2_Q9HCS7_98_CVTDPAYEDVNNCHER (UniProt Q9HCS7) | 0.341
26 | XPC_Q01831_814_KLDIDCVQAITGFDFHGGYSHPVTDGYIVCEEFK (UniProt Q01831) | 0.00756
27 | WDR75_Q8IWA0_12_CGGSELNFR (UniProt Q8IWA0) | 0.0841
28 | WDR11_Q9BZH6_1000_KCTDQLLLLGQTDR (UniProt Q9BZH6) | 0.0619
29 | WDHD1_O75717_277+285_GYAICGLAWHPTCGR (UniProt O75717) | -0.111
30 | WWP2_O00308_186_HQPPSTNCFGGR (UniProt O00308) | -0.168
31 | WDR55_Q9H6Y2_306_VVGSVGQHTGEPVEELALSHCGR (UniProt Q9H6Y2) | -0.00583
32 | WRN_Q14191_1090_EHCYNQVPVELSTEK (UniProt Q14191) | -0.0634
33 | WDR59_Q6PJI9_737_QLLESLLAHYCR (UniProt Q6PJI9) | 0.228
34 | WDHD1_O75717_773_MLALSCK (UniProt O75717) | 0.00645
35 | WDR76_Q9H967_596_VHSFGGEYLVSVCSINAMHPTR (UniProt Q9H967) | -0.0447
36 | WDR75_Q8IWA0_451_INMPHEDCITALCFCNAEK (UniProt Q8IWA0) | 0.0972
37 | WRN_Q14191_1070_ANTESQSLILQANEELCPK (UniProt Q14191) | -0.0363
38 | WDFY4_Q6ZS81_2251_KCGNIK (UniProt Q6ZS81) | -0.324
39 | WDR6_Q9NNW5_981_LGTPSLTLQAHSCGINSLHTLPTR (UniProt Q9NNW5) | 0.138
40 | WDR81_Q562E7_1715_SVFFVGQLEAPQHVVSCDGAVHVWDPFTGK (UniProt Q562E7) | 0.0532

Source: the supplement of paper PMC12067093, “Discovery and optimisation of a covalent ligand for TRIM25 and its application to targeted protein ubiquitination” (Chemical Science, 2025)
